Measured values reported in US4235666A, “1,2,3,4,4a,9a-Hexahydro-9,10-anthracene-dione, its preparation and its application to the delignification of lignocellulosic materials” (Produits Chimiques Ugine Kuhlmann, priority 1978, dated 1980).

Test: Caustic soda cooking (delignification) with adjuvant
Design: species or system moorland maritime pine
Protocol: Shavings of moorland maritime pine are subjected to heating in an autoclave with a caustic soda liquor. The cooking conditions are as follows:
Amount of caustic soda: 22% by weight with respect to the dry vegetable material.
Ratio of liquor/vegetable material: 4
Temperature of cooking: 170° C.
Time in which the cooking temperature
Time of cooking: 90 minutes
Amount of adjuvant: 0-0.1%-0.5%-1% by weight with respect to the dry vegetable material
After cooking, the pulps obtained are washed, disintegrated on a 3 mm grid (Vewerk grader or sorter).
The crude yield and the yield of sorted pulp are determined on the pulps, and the Kappa index according to French standard NFT 12018 are determined on the raw pulps.
The pH and the consumption of caustic soda are determined on the liquors after cooking.
A comparative test with 0.5% of anthraquinone was carried out under the same operational conditions as in Example 9.

Structure (SMILES)	pH of liquor after heating (0.1% adjuvant)	pH of liquor after heating (0.5% adjuvant)	pH of liquor after heating (1% adjuvant)
O=C1c2ccccc2C(=O)C2CCCCC12 (stereo not shown) [6 HAD, 1,2,3,4,4a,9a-hexahydro-9,10-anthracene-dione]	12.4	12.4	12.4
O=C1c2ccccc2C(=O)c2ccccc21 [Anthraquinone, anthraquinone, reference compound]	–	12.3	–
